PubChem BioAssay AID602196 – INSERM, 2012
In all, the deposit lists about 23,000 reagents; shown is an unselected part. Of all reagents, 455 (2%) got an active call. 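Active includes both protection and sensitisation; some change values fall well beyond the stated -50 to +50 range.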 Reagent sequences are not shown. The record does not give: the amount of reagent.

Screen: 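Genes whose knock-down alters cisplatin killing of lung cancer cells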
Cells: human A549 lung cancer cells
Knock-down reagent: siRNA pair against human genes
Time to read-out: 48 h transfection before cisplatin; time from cisplatin to read-out not stated
Treatment: cisplatin at a dose killing half of control-siRNA cells; exact dose and duration not given
Measurement: 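Cisplatin cell death as a shift from the 50% death seen with control siRNA; siRNAs toxic or growth-blocking alone scored 0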
Direction: two-siRNA summed score (-2 to +2): higher = both siRNAs protect from cisplatin killing; -2 means both sensitise; mean protection from cisplatin (shift in death) and protection from cisplatin (shift in death), siRNA C and protection from cisplatin (shift in death), siRNA D: higher = protection from cisplatin killing
Hit rule: 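siRNAs harmful alone (LDH or WST-1) get 0; others get +1 for less and -1 for more cisplatin killing; genes are active when the two siRNAs give the same sign, summing to ±2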
Meaning of the calls: active = both siRNAs shift cisplatin killing the same way; inactive = no consistent shift, or siRNA harmful alone

| gene | two-siRNA summed score (-2 to +2) | mean protection from cisplatin (shift in death) (%) | protection from cisplatin (shift in death), siRNA C (%) | protection from cisplatin (shift in death), siRNA D (%) | Outcome |
| --- | --- | --- | --- | --- | --- |
| LOC442711 | 0 | 5.4 | 4.3 | 6.6 | inactive |
| TPRX1 (GeneID 284355) | 0 | -2.4 | -4.9 | 0.1 | inactive |
| PCID2 (GeneID 55795) | 0 | 8.1 | 3.2 | 13 | inactive |
| CD151 (GeneID 977) | -1 | -28.9 | -33 | -24.8 | inactive |
| CHPF (GeneID 79586) | 0 | 4.5 | -11.1 | 20.1 | inactive |
| ASTILCS (GeneID 105375790) | 0 | 22.3 | 18.8 | 25.8 | inactive |
| PDS5B (GeneID 23047) | 0 | -0.2 | -1.3 | 1 | inactive |
| RPUSD2 (GeneID 27079) | -1 | -7.8 | 0.9 | -16.5 | inactive |
| ZNF335 (GeneID 63925) | 0 | 13.1 | 26.2 | 0 | inactive |
| ARMC9 (GeneID 80210) | -1 | -15.6 | -9.1 | -22 | inactive |
| ERH (GeneID 2079) | 0 | 18.1 | 33.2 | 3.1 | inactive |
| LOC440938 | 0 | 5.1 | 8.2 | 1.9 | inactive |
| H2BC15 (GeneID 8341) | 0 | -1.2 | -8.4 | 5.9 | inactive |
| LOC440689 | 0 | 10.2 | 13.4 | 7 | inactive |
| LOC389232 | 0 | 1.9 | -4.3 | 8.2 | inactive |
| SLC22A25 (GeneID 387601) | 1 | 13.2 | 8.1 | 18.4 | inactive |
| LOC388897 | 0 | 1.6 | -5.9 | 9.1 | inactive |
| SPART (GeneID 23111) | 0 | 13 | 21.6 | 4.4 | inactive |
| NDUFA2 (GeneID 4695) | 0 | -11.1 | 2.4 | -24.6 | inactive |
| RIC3 (GeneID 79608) | 0 | 4.1 | -0.3 | 8.4 | inactive |
| CDV3 (GeneID 55573) | 0 | -3.4 | 3 | -9.7 | inactive |
| CLSTN3 (GeneID 9746) | 0 | -0.9 | -7.1 | 5.2 | inactive |
| ZNF821 (GeneID 55565) | 0 | -2.8 | 0.9 | -6.5 | inactive |
| FBXO43 (GeneID 286151) | 1 | 5.8 | 0.3 | 11.4 | inactive |
| TMC6 (GeneID 11322) | 0 | 9.5 | 8.5 | 10.5 | inactive |
| SEMA4A (GeneID 64218) | 0 | -1.2 | 2.6 | -5.1 | inactive |
| GLRB (GeneID 2743) | -1 | -15.1 | -17.9 | -12.4 | inactive |
| STAB1 (GeneID 23166) | 0 | 0 | 6.4 | -6.4 | inactive |
| OR10J5 (GeneID 127385) | 1 | 15.1 | 10.1 | 20.1 | inactive |
| C10orf88B (GeneID 399815) | 0 | 4.7 | -0.3 | 9.8 | inactive |
| REV1 (GeneID 51455) | 0 | -23.3 | -17.6 | -29.1 | inactive |
| CCDC149 (GeneID 91050) | 1 | 12 | 14.5 | 9.5 | inactive |
| CALB2 (GeneID 794) | 0 | 1.5 | 1.8 | 1.2 | inactive |
| CCDC177 (GeneID 56936) | 0 | -0.2 | 5.7 | -6 | inactive |
| SECISBP2L (GeneID 9728) | 2 | 13.9 | 13.9 | 13.9 | active |
| LPAL2 (GeneID 80350) | -1 | -4.8 | 10.1 | -19.7 | inactive |
| CLUL1 (GeneID 27098) | 1 | 14.8 | 14.8 | 14.8 | inactive |
| PPP2R5B (GeneID 5526) | 1 | 23.7 | 18.8 | 28.7 | inactive |
| PTCHD1 (GeneID 139411) | 1 | 12.4 | 11.4 | 13.4 | inactive |
| TUBB3 (GeneID 10381) | -1 | -19.1 | 5.1 | -43.3 | inactive |
| NRM (GeneID 11270) | 0 | 10.9 | 20.2 | 1.6 | inactive |
| LINC02232 (GeneID 401134) | 0 | 9.9 | 21.1 | -1.2 | inactive |
| LINC01107 (GeneID 151171) | 0 | 9.2 | 11.5 | 6.9 | inactive |
| ZNF780B (GeneID 163131) | 0 | 13.1 | 13.3 | 12.9 | inactive |
| ID2 (GeneID 3398) | 1 | 6.9 | -7.4 | 21.3 | inactive |
| EPRS1 (GeneID 2058) | 0 | 7.8 | 4.1 | 11.5 | inactive |
| PURA (GeneID 5813) | 0 | 6.8 | 7 | 6.6 | inactive |
| LOC440023 | 1 | 16.6 | 23.3 | 9.9 | inactive |
| LOC389650 | 0 | 5.7 | 2.6 | 8.9 | inactive |
| COL8A1 (GeneID 1295) | 1 | 6.2 | -11.1 | 23.5 | inactive |
| ATPAF2 (GeneID 91647) | 0 | 4.4 | -2 | 10.7 | inactive |
| LOC439987 | 1 | 10.3 | 17.8 | 2.8 | inactive |
| MGC9913 | 1 | 17.2 | 22.3 | 12.1 | inactive |
| HMGN3 (GeneID 9324) | -1 | -8.3 | 2 | -18.6 | inactive |
| PHKB (GeneID 5257) | -1 | 0.1 | 14.9 | -14.7 | inactive |
| EIF5A2 (GeneID 56648) | 1 | 13.9 | 20.3 | 7.5 | inactive |
| SH3BP4 (GeneID 23677) | 0 | -6.8 | -6.6 | -6.9 | inactive |

6 consecutive records already listed, for reference:
| gene | two-siRNA summed score (-2 to +2) | mean protection from cisplatin (shift in death) (%) | protection from cisplatin (shift in death), siRNA C (%) | protection from cisplatin (shift in death), siRNA D (%) | Outcome |
| --- | --- | --- | --- | --- | --- |
| SLC22A25 (GeneID 387601) | 1 | 13.2 | 8.1 | 18.4 | inactive |
| LOC388897 | 0 | 1.6 | -5.9 | 9.1 | inactive |
| SPART (GeneID 23111) | 0 | 13 | 21.6 | 4.4 | inactive |
| NDUFA2 (GeneID 4695) | 0 | -11.1 | 2.4 | -24.6 | inactive |
| RIC3 (GeneID 79608) | 0 | 4.1 | -0.3 | 8.4 | inactive |
| CDV3 (GeneID 55573) | 0 | -3.4 | 3 | -9.7 | inactive |
